Paper PMC5983026, “Intraring allostery controls the function and assembly of a hetero-oligomeric class II chaperonin” (The FASEB Journal, 2018)
Numbering of substitutions follows the chain as printed. Names may count otherwise. Results are given in words; binding and its absence hold for the method and conditions named. Some binding calls cover weakened binding; strength is not graded here. Where a sequence is shown, tags or fusion partners need not be part of it.

Columns and labels:
Assay in all cases: SEC + native gel or EMSA; α (intraloop His6) and β co-expressed in E. coli; complexes purified to homogeneity as in ref. 29; integrity by Superose 6 Increase SEC (main peak ≅950 kDa) and native-PAGE 3–12% (≅1 MDa); subunit composition by Tris-Acetate SDS-PAGE (7%) of the purified proteins; both purified
[1] = target: T1, Thermoplasma acidophilum thermosome α subunit D94A, with intraloop His6-tag (Thermoplasma acidophilum) (UniProt P48424)
T1 sequence: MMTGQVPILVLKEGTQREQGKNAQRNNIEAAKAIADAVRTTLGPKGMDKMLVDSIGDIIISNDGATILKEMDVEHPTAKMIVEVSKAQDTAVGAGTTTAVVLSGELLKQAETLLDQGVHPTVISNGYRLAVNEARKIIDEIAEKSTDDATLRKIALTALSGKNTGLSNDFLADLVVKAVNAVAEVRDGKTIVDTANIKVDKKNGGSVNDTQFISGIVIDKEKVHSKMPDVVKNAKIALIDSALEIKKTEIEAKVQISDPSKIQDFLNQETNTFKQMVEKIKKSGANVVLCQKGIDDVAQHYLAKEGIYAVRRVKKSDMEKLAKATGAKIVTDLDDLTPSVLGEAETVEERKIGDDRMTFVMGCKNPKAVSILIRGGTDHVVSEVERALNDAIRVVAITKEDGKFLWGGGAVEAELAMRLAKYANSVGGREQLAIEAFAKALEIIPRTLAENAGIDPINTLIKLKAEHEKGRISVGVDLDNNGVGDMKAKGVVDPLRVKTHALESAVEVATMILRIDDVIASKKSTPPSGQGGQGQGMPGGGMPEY

[2] = target: T2, Thermoplasma acidophilum thermosome α subunit T157A, with intraloop His6-tag (Thermoplasma acidophilum) (UniProt P48424)
T2 sequence: T1 sequence with A94D, T157A

[3] = target: T3, Thermoplasma acidophilum thermosome α subunit, wild type, with intraloop His6-tag (Thermoplasma acidophilum) (UniProt P48424)
T3 sequence: T1 sequence with A94D

B1: Thermoplasma acidophilum thermosome β subunit, wild type (protein, UniProt P48425 1-543)
chain: MIAGQPIFILKEGTKRESGKDAMKENIEAAIAISNSVRSSLGPRGMDKMLVDSLGDIVITNDGVTILKEMDVEHPAAKMMVEVSKTQDSFVGDGTTTAVIIAGGLLQQAQGLINQNVHPTVISEGYRMASEEAKRVIDEISTKIGADEKALLLKMAQTSLNSKSASVAKDKLAEISYEAVKSVAELRDGKYYVDFDNIQVVKKQGGAIDDTQLINGIIVDKEKVHPGMPDVVKDAKIALLDAPLEIKKPEFDTNLRIEDPSMIQKFLAQEENMLREMVDKIKSVGANVVITQKGIDDMAQHYLSRAGIYAVRRVKKSDMDKLAKATGASIVSTIDEISSSDLGTAERVEQVKVGEDYMTFVTGCKNPKAVSILVRGETEHVVDEMERSITDSLHVVASALEDGAYAAGGGATAAEIAFRLRSYAQKIGGRQQLAIEKFADAIEEIPRALAENAGLDPIDILLKLRAEHAKGNKTYGINVFTGEIEDMVKNGVIEPIRVGKQAIESATEAAIMILRIDDVIATKSSSSSSNPPKSGSSSESSED
B1 was tested, and the binding [1] was “binds”, the binding [2] was “binds” and the binding [3] was “binds”.

B2: Thermoplasma acidophilum thermosome β subunit D93K (protein, UniProt P48425 1-543)
chain: B1 chain with D93K
B2 was tested, and the binding [3] was “binds”.

B3: Thermoplasma acidophilum thermosome β subunit T158A (protein, UniProt P48425 1-543)
chain: B1 chain with T158A
For B3, the binding [3] was “binds”.
